Some of the results follow.
Compound: Cc1cc(ccc1-c1ccccc1)C(=O)N1CCCN(CC1)C(=O)CCl [compound 10]
Assay: probe-labelled cysteine peptide fold change vs DMSO (competition) (log2 fold change); higher = less target engagement (more negative = stronger competition)
Conditions: THP-1, incubation time: 4 h
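Also: competitive profiling in live THP-1 cells: cysteine peptides tagged with an iodoacetamide desthiobiotin (IA-DTB) probe, intensity after compound treatment relative to DMSO-treated cells.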

The chains behind the UniProt entries cited, without tags or fusion partners. Where a name states a change or a piece, a line headed by the entry shows the natural chain unless it says otherwise.
UniProt Q86W42: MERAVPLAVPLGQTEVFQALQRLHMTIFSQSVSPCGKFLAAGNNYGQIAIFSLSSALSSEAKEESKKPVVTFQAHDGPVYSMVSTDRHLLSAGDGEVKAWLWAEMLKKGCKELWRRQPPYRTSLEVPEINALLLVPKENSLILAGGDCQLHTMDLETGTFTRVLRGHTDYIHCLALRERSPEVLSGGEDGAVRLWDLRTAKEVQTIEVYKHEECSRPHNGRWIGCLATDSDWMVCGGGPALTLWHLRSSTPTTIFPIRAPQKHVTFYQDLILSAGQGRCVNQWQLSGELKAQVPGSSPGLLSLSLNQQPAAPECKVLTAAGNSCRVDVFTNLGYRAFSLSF
UniProt Q5TEJ8: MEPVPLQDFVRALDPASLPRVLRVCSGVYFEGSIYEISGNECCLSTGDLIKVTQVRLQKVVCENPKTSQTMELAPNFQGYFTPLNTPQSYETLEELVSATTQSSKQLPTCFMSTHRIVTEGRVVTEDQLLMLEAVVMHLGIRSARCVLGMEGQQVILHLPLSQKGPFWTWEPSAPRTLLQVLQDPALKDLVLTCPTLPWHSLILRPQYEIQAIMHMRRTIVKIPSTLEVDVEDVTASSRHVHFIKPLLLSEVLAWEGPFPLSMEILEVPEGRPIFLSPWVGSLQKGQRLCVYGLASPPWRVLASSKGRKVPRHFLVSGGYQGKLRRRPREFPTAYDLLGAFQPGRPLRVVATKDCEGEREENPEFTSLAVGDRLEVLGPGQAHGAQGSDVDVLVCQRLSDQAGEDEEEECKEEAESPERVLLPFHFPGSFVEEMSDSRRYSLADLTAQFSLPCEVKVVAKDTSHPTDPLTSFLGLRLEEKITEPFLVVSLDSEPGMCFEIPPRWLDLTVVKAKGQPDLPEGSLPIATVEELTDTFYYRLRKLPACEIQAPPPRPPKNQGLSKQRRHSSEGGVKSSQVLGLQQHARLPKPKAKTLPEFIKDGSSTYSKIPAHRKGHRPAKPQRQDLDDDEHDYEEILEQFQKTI
UniProt Q96N21: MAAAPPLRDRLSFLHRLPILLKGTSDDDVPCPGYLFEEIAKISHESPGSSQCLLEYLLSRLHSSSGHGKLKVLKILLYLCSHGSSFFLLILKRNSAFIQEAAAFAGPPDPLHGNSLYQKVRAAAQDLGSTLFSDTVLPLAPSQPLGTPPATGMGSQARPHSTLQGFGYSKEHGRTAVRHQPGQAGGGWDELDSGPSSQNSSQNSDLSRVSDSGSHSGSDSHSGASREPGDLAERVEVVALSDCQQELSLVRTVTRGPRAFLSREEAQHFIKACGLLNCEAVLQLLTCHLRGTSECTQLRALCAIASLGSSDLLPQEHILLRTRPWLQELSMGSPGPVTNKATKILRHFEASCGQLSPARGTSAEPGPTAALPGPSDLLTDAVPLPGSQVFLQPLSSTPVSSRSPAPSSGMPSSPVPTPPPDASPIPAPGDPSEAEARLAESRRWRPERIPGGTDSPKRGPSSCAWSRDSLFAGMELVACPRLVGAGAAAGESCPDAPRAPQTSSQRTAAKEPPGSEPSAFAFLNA
UniProt Q8NHU6: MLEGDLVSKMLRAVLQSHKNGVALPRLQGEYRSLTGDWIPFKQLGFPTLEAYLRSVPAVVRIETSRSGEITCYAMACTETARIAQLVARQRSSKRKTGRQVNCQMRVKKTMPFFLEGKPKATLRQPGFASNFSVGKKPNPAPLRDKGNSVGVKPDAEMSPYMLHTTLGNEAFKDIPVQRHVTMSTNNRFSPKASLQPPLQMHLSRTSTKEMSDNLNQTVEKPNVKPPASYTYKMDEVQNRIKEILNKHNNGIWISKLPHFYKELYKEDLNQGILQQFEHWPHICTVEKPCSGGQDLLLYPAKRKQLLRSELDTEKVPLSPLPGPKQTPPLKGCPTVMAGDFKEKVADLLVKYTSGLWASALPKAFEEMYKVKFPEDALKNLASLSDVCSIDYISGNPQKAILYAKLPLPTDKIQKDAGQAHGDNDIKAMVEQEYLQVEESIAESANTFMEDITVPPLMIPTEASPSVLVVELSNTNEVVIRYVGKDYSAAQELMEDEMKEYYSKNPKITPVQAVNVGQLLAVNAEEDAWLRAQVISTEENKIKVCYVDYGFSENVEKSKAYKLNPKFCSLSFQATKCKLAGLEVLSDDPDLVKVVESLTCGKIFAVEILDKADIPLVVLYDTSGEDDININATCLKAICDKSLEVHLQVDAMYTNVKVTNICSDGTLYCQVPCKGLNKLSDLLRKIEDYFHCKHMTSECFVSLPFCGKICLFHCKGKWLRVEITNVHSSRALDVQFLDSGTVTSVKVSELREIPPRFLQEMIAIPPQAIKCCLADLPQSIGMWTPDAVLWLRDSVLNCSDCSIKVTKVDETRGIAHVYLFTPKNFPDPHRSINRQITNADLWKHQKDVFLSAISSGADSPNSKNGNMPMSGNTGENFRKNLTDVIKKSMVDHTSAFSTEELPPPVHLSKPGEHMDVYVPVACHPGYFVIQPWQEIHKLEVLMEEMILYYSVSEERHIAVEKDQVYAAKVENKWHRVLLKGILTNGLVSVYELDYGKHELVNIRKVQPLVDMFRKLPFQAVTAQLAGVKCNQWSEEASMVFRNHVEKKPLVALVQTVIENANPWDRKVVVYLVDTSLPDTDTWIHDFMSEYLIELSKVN
UniProt P04183: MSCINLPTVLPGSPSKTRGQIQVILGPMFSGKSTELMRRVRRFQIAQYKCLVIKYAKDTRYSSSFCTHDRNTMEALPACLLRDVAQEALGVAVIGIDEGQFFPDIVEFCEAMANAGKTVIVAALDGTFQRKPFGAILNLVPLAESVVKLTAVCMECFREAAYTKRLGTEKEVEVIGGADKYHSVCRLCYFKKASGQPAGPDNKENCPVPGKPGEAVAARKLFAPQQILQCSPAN
UniProt Q9Y5J6: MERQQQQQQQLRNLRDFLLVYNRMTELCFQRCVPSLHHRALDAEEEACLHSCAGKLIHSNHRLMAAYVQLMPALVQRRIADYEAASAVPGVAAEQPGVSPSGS
UniProt P17987, whole entry, looked up: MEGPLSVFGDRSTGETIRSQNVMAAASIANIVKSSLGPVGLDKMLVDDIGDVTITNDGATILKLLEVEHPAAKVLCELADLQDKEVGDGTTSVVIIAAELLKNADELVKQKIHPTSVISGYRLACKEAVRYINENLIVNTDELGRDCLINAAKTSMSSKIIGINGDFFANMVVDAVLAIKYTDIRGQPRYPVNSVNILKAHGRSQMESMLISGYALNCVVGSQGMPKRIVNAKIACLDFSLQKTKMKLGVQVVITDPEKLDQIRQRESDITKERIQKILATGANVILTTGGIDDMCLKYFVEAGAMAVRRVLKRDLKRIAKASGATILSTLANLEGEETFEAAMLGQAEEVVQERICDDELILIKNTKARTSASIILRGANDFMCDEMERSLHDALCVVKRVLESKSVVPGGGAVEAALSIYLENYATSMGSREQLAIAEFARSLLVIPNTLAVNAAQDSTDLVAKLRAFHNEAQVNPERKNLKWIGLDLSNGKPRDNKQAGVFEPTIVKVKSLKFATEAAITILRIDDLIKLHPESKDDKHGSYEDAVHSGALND
UniProt Q9Y6I9: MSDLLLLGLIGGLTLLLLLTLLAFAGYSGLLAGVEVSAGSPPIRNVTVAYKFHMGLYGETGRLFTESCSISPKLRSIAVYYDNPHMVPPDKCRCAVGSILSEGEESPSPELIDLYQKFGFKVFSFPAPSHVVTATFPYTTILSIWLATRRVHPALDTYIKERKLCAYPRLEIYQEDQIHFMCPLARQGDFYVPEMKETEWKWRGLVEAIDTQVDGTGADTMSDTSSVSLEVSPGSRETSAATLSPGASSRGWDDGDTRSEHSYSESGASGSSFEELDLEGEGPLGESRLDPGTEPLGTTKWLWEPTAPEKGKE
UniProt Q6YHU6: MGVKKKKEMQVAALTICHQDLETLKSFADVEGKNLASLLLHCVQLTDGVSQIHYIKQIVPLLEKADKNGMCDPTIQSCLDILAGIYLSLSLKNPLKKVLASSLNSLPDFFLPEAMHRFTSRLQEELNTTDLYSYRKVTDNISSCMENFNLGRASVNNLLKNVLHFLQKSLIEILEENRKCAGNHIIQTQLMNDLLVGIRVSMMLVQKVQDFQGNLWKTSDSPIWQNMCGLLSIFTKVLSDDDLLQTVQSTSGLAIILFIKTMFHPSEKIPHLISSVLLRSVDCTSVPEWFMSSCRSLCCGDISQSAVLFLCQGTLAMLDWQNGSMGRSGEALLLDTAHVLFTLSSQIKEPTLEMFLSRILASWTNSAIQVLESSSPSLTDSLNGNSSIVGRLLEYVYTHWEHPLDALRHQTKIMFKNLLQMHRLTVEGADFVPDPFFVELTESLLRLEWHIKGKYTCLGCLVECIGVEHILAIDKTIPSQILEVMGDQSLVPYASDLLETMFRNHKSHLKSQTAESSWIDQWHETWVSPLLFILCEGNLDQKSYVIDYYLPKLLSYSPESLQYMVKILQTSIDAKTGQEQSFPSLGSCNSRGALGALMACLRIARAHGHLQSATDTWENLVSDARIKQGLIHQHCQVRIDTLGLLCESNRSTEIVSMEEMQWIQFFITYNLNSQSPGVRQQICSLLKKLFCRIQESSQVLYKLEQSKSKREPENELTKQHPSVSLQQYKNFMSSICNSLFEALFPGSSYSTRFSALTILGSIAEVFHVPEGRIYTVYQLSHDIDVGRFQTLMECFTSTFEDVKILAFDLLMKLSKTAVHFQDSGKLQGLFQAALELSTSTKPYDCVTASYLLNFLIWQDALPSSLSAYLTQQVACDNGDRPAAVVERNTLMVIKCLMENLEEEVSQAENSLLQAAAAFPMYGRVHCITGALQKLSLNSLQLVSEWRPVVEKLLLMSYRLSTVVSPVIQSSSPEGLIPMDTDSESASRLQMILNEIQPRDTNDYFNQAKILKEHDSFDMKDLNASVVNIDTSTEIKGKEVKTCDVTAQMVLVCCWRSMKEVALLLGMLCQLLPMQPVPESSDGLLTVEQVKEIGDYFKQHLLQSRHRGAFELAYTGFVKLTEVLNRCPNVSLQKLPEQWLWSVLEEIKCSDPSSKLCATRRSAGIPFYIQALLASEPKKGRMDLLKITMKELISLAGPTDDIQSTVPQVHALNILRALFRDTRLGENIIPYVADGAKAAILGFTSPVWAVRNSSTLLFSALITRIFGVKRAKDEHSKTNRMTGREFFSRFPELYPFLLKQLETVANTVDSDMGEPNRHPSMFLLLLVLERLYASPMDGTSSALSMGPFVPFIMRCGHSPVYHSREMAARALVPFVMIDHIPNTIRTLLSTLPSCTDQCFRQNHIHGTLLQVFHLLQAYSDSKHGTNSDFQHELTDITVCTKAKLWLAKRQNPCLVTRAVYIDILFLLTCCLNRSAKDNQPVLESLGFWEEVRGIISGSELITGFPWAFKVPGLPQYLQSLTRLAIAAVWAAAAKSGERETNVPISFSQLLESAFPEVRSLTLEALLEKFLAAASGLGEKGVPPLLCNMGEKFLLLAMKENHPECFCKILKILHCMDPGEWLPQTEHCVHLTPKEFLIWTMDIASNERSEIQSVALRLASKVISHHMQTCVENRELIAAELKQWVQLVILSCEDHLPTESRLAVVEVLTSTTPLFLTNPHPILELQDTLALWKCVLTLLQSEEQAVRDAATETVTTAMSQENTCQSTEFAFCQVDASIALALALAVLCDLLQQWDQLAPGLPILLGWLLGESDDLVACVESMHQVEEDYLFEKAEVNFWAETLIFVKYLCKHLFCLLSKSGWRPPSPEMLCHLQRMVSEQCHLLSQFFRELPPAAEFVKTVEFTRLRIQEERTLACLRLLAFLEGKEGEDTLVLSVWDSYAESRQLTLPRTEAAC
UniProt Q6P9B6: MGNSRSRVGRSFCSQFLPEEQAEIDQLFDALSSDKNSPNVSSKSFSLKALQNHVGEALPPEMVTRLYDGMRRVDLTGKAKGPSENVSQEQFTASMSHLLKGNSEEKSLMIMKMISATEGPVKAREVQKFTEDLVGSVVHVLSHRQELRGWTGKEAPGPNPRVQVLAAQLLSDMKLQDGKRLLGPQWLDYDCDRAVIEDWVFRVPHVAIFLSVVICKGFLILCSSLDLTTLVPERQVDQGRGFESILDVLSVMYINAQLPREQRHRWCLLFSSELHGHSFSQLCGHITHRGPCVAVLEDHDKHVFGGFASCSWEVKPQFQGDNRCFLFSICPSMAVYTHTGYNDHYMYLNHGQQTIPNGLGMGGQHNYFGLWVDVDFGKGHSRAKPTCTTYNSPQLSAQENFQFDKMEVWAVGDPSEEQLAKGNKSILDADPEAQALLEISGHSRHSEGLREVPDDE
UniProt O75663: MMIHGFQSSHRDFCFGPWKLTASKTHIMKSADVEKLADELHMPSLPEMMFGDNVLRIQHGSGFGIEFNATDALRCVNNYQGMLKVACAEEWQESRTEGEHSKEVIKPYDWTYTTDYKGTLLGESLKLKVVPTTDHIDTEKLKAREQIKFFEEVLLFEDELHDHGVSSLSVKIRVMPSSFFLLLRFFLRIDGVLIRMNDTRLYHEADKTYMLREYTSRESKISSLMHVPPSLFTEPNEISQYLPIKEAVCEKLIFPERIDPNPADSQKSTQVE

Target | probe-labelled cysteine peptide fold change (10 µM) | probe-labelled cysteine peptide fold change (50 µM)
THEM6_Q8WUY1_104_AHTVLAASCAR (UniProt Q8WUY1) | -0.0518 | -0.228
THOC6_Q86W42_214_HEECSRPHNGR (UniProt Q86W42) | 0.1 | 0.312
TEP1_Q99973_21_CLAMLPDLQPLEK (UniProt Q99973) | -0.123 | -0.342
THBS1_P07996_406_SCDSLNNR (UniProt P07996) | -0.464 | 0.0245
THUMPD3_Q9BV44_434_VCTPTTGR (UniProt Q9BV44) | 0.0194 | -0.278
THEMIS2_Q5TEJ8_410_LSDQAGEDEEEECKEEAESPER (UniProt Q5TEJ8) | 0.242 | -0.158
THEMIS2_Q5TEJ8_355_DCEGEREENPEFTSLAVGDR (UniProt Q5TEJ8) | -0.0936 | 0.194
TIMM50_Q3ZCQ8_236_DISCLNRDPAR (UniProt Q3ZCQ8) | -0.0775 | -0.032
THOC1_Q96FV9_604_QIECDSEDMK (UniProt Q96FV9) | 0.077 | -0.118
TEPSIN_Q96N21_493_LVGAGAAAGESCPDAPR (UniProt Q96N21) | -0.182 | -0.427
TDRD7_Q8NHU6_568_FCSLSFQATK (UniProt Q8NHU6) | 0.191 | 0.232
TES_Q9UGI8_196_LPCEMDAQGPK (UniProt Q9UGI8) | -0.148 | -0.318
TGFB1I1_O43294_228+231_GLCGSCNKPIAGQVVTALGR (UniProt O43294) | -0.105 | -0.272
TK1_P04183_153_LTAVCMECFR (UniProt P04183) | 0.211 | 0.199
TLN1_Q9Y490_1087_CTQDLGNSTK (UniProt Q9Y490) | 0.326 | 0.241
TK1_P04183_156_LTAVCMECFR (UniProt P04183) | 0.15 | 0.139
TIMM10B_Q9Y5J6_48+52_ALDAEEEACLHSCAGK (UniProt Q9Y5J6) | 0.0977 | -0.275
THUMPD1_Q9NXG2_248_AVCCLSVVK (UniProt Q9NXG2) | -0.065 | 0.273
TDRD7_Q8NHU6_290_PCSGGQDLLLYPAK (UniProt Q8NHU6) | -0.138 | -0.828
TLN1_Q9Y490_1509_HTSALCNSCR (UniProt Q9Y490) | 0.0952 | -0.0191
TENT2_Q6PIY7_374_IYPESFSPAIQLHLVHQAPCNVPPYLSK (UniProt Q6PIY7) | 0.0187 | -0.189
TIFA_Q96CG3_56_NSNICHYTFQDK (UniProt Q96CG3) | 0.0425 | 0.0989

Target | probe-labelled cysteine peptide fold change (10 µM) | probe-labelled cysteine peptide fold change (50 µM)
TEX30_Q5JUR7_166_LKEPVLFVSGSADEMCEK (UniProt Q5JUR7) | -0.163 | -0.222
TCP1_P17987_397_SLHDALCVVKR (UniProt P17987) | -0.118 | -0.718
TDP1_Q9NUW8_413_WLCSEFK (UniProt Q9NUW8) | -0.13 | -0.206
TEX264_Q9Y6I9_68_LFTESCSISPK (UniProt Q9Y6I9) | -0.0839 | -0.424
THOC1_Q96FV9_251_NPVQCYEK (UniProt Q96FV9) | -0.187 | 0.285
TKT_P29401_206_RCEAFGWHAIIVDGHSVEELCK (UniProt P29401) | -0.167 | -0.116
THOC2_Q8NI27_804_RVPSIDVLCNEFHTPHDAAFFLSR (UniProt Q8NI27) | 0.0449 | 0.0258
TGFBRAP1_Q8WUH2_700_ALHILVHELQDFAAAEDYCLWCSEGRDPPHR (UniProt Q8WUH2) | 0.128 | 0.353
TES_Q9UGI8_412_FMPVEGMVFCSVECK (UniProt Q9UGI8) | -0.0362 | -0.000938
TGFB1I1_O43294_393_ECFAPFSGGSFFEHEGRPLCENHFHAR (UniProt O43294) | 0.0627 | 0.171
TKT_P29401_41+42_ISSIQATTAAGSGHPTSCCSAAEIMAVLFFHTMR (UniProt P29401) | -0.351 | -0.614
TKT_P29401_225_RCEAFGWHAIIVDGHSVEELCK (UniProt P29401) | 0.0132 | 0.0307
THBD_P07204_265_CQCPAGAALQADGR (UniProt P07204) | -0.0316 | 0.0778
THADA_Q6YHU6_926_VHCITGALQK (UniProt Q6YHU6) | -0.0589 | -0.0508
TEX264_Q9Y6I9_94_CAVGSILSEGEESPSPELIDLYQK (UniProt Q9Y6I9) | -0.0286 | 0.00385
TEPSIN_Q96N21_295_GTSECTQLR (UniProt Q96N21) | 0.354 | 0.0174
TCP1_P17987_357_ICDDELILIK (UniProt P17987) | -0.172 | 0.0379
THOP1_P52888_427_YGHAACFGLQPGCLR (UniProt P52888) | 0.0275 | -0.246
THOC2_Q8NI27_853_YITSCEMVMAPVHEAVVSLHVSK (UniProt Q8NI27) | -0.0135 | 0.0424
THAP12_O43422_230_RFETTAVNTLFCSK (UniProt O43422) | -0.0392 | -0.0496
TKT_P29401_42_ISSIQATTAAGSGHPTSCCSAAEIMAVLFFHTMR (UniProt P29401) | -0.207 | -0.178
TET3_O43151_1381_GKPWSPCK (UniProt O43151) | -0.379 | -1.3

Target | probe-labelled cysteine peptide fold change (10 µM) | probe-labelled cysteine peptide fold change (50 µM)
TEX264_Q9Y6I9_165_KLCAYPR (UniProt Q9Y6I9) | -0.0198 | -0.67
THADA_Q6YHU6_42_NLASLLLHCVQLTDGVSQIHYIK (UniProt Q6YHU6) | 0.194 | 0.238
TLDC1_Q6P9B6_292_GPCVAVLEDHDK (UniProt Q6P9B6) | -0.0167 | 0.231
TICAM1_Q8IUC6_37_TPRPGCQGQDLLHAMVLLK (UniProt Q8IUC6) | 0.14 | -0.0325
TLN1_Q9Y490_1045_AQEACGPLEMDSALSVVQNLEK (UniProt Q9Y490) | 0.325 | 0.22
THOC6_Q86W42_314_AQVPGSSPGLLSLSLNQQPAAPECK (UniProt Q86W42) | 0.105 | -0.0567
THYN1_Q9P016_118_LGEEAFFYHSNCK (UniProt Q9P016) | -0.103 | -0.175
TKFC_Q3LXA3_155_RGLCGTVLIHK (UniProt Q3LXA3) | 0.0371 | 0.16
TES_Q9UGI8_22_MGLGHEQGFGAPCLK (UniProt Q9UGI8) | -0.0252 | -0.261
THOC2_Q8NI27_804_VPSIDVLCNEFHTPHDAAFFLSR (UniProt Q8NI27) | 0.302 | 0.138
THOC2_Q8NI27_1111_ASVHCLETGEYTHIR (UniProt Q8NI27) | -0.216 | 0.5
THOP1_P52888_246_KVEEAFNCR (UniProt P52888) | -0.102 | -0.282
TIMELESS_Q9UNS1_606_IQDCLLAGQAPQALTLLR (UniProt Q9UNS1) | -0.552 | -0.232
TEP1_Q99973_2000_ECSLQSLWLLSR (UniProt Q99973) | -0.0267 | -0.118
TKFC_Q3LXA3_404_AAGDGDCGTTHSR (UniProt Q3LXA3) | -0.0749 | 0.0509
TFCP2_Q12800_72_ILPFQYVLCAATSPAVK (UniProt Q12800) | 0.339 | 0.0755
THOC2_Q8NI27_986_CIFSAIDAVYCAR (UniProt Q8NI27) | -0.0289 | 0.00569
THOC2_Q8NI27_1031_VFSDIIYTVASCTENEASR (UniProt Q8NI27) | 0.122 | 0.189
THOC2_Q8NI27_436_DVFNMFCYLGPHLSHDPILFAK (UniProt Q8NI27) | 0.0617 | 0.215
TIPRL_O75663_87_VACAEEWQESR (UniProt O75663) | -0.298 | -0.699
TCP1_P17987_397_SLHDALCVVK (UniProt P17987) | 0.0472 | 0.0225
TDRD7_Q8NHU6_692_KIEDYFHCK (UniProt Q8NHU6) | -0.133 | -0.707

5 entries picked at random from the list so far:
Target | probe-labelled cysteine peptide fold change (10 µM) | probe-labelled cysteine peptide fold change (50 µM)
TLN1_Q9Y490_1045_AQEACGPLEMDSALSVVQNLEK (UniProt Q9Y490) | 0.325 | 0.22
THOC2_Q8NI27_436_DVFNMFCYLGPHLSHDPILFAK (UniProt Q8NI27) | 0.0617 | 0.215
TIPRL_O75663_87_VACAEEWQESR (UniProt O75663) | -0.298 | -0.699
TLDC1_Q6P9B6_292_GPCVAVLEDHDK (UniProt Q6P9B6) | -0.0167 | 0.231
THOC2_Q8NI27_804_VPSIDVLCNEFHTPHDAAFFLSR (UniProt Q8NI27) | 0.302 | 0.138

Continued.

Target | probe-labelled cysteine peptide fold change (10 µM) | probe-labelled cysteine peptide fold change (50 µM)
TLN1_Q9Y490_2243_ECANGYLELLDHVLLTLQK (UniProt Q9Y490) | 0.169 | 0.303
TLN1_Q9Y490_1927_VQELGHGCAALVTK (UniProt Q9Y490) | 0.117 | -0.0163
THOC6_Q86W42_173_GHTDYIHCLALR (UniProt Q86W42) | 0.354 | 0.198
TELO2_Q9Y4R8_30_EAIHALSSSEDGGHIFCTLESLKR (UniProt Q9Y4R8) | -0.113 | -0.671
TK1_P04183_66_YSSSFCTHDR (UniProt P04183) | -0.00427 | -0.397
TEPSIN_Q96N21_463_RGPSSCAWSR (UniProt Q96N21) | -0.249 | -0.514
TFCP2_Q12800_369_DDVIQICGPADGIR (UniProt Q12800) | 0.00967 | 0.0734
TEX30_Q5JUR7_21_LLDAVCLVPNK (UniProt Q5JUR7) | -0.0748 | 0.192
THOP1_P52888_427+434_YGHAACFGLQPGCLR (UniProt P52888) | -0.0271 | -0.158
TDRD7_Q8NHU6_72_SGEITCYAMACTETAR (UniProt Q8NHU6) | 0.11 | -1.02
THG1L_Q9NWX6_47_DFEADDTCLAHCWVVVR (UniProt Q9NWX6) | -0.0809 | 0.0136
TDRD7_Q8NHU6_600_VVESLTCGK (UniProt Q8NHU6) | 0.0499 | 0.0939
TEX10_Q9NXF1_454_DCSWIEMIR (UniProt Q9NXF1) | 0.104 | 0.103
TEX30_Q5JUR7_129_GLICISYPLHHPK (UniProt Q5JUR7) | 0.0568 | -0.134
TEP1_Q99973_171_GLDLSTCPIALK (UniProt Q99973) | -0.11 | -0.948
THOC2_Q8NI27_28_GEFLHLCR (UniProt Q8NI27) | 0.218 | 0.149
THOC1_Q96FV9_226_HTEDREEGMDVEEGEMGDEEAPTTCSIPIDYNLYR (UniProt Q96FV9) | -0.14 | -0.258
THOP1_P52888_350_YCVDQNLLK (UniProt P52888) | -0.000536 | -0.0392
TK1_P04183_230_LFAPQQILQCSPAN (UniProt P04183) | -0.0215 | -0.165

Reference: the supplement of paper PMC12067093, “Discovery and optimisation of a covalent ligand for TRIM25 and its application to targeted protein ubiquitination” (Chemical Science, 2025)
